The record followed here is doi:10.1101/806802.

These are yes or no findings as the source states them, for the method shown. Binding calls can cover weak binding; strength is not graded here.

For this test, the target named is RIN4b of soybean (GmRIN4b), GAL4 DNA-binding domain fusion in pBridge (soybean) (UniProt C6TH04). Description: yeast three-hybrid.

Take “AvrB, bacterial effector of Pseudomonas syringae, GAL4 activation domain fusion (from UniProt P13835 1-321)”: the binding result is given as “binds”.
